First the molecules themselves.
B1: scFv-1 (scFv)
scFv: QVQLVQSGGGLVQPGGSLRLSCAASGFTFSSYAMHWVRQAPGKGLEWVSVISPAGNNTYYADSVKGRFTISRDNSKNTLYLQMNSLRAEDTAVYYCARASVGATGPFDIWGQGTLVTVSSASTGGGGSGGGGSGGGGSGGGGSSSELTQPPSVSVAPGQTVTITCQGDSLRSYYASWYQQKPGTAPKLLIYGENNRPSGVPDRFSGSSSGTSASLTITGAQAEDEADYYCNSRDSSGTHLTVFGGGTKLTVLG
B2: scFv-3 (scFv)
scFv: B1 scFv with S49T, A54D, N56H
B3: scFv-7 (scFv)
scFv: B1 scFv with N56P
B4: scFv-9 (scFv)
scFv: B1 scFv with S49T, A54N, N56H
B5: scFv-5 (scFv)
scFv: B1 scFv with P53R, A54R, N56D, T58K
B6: scFv-17 (scFv)
scFv: B1 scFv with S49T, A54P, N56S, T58K
B7: scFv-2 (scFv)
scFv: B1 scFv with N56R, T58K
B8: scFv-15 (scFv)
scFv: B1 scFv with A54H, N56S, T58K
B9: scFv-20 (scFv)
scFv: B1 scFv with S49T, P53H, A54D, N56T
B10: scFv-21 (scFv)
scFv: B1 scFv with S49T, P53R, A54H, T58K
B11: scFv-10 (scFv)
scFv: B1 scFv with V50A, A54P, N56H
B12: scFv-16 (scFv)
scFv: B1 scFv with P53N, A54N, N56H
B13: scFv-4 (scFv)
scFv: B1 scFv with S49T, A54H, N56R, T58K
B14: scFv-14 (scFv)
scFv: B1 scFv with S49T, N56P, T58K
B15: scFv-13 (scFv)
scFv: B1 scFv with S49T, A54T, N56A
B16: scFv-6 (scFv)
scFv: B1 scFv with P53N, A54N, N56H, T58K
B17: scFv-11 (scFv)
scFv: B1 scFv with S49A, P53H, A54H, N56S
B18: scFv-22 (scFv)
scFv: B1 scFv with S49T, A54G, N56P, T58K
B19: scFv-8 (scFv)
scFv: B1 scFv with S49T, A54S, N56H
B20: scFv-18 (scFv)
scFv: B1 scFv with N56T
B21: scFv-19 (scFv)
scFv: B1 scFv with A54P, N56H
B22: scFv-12 (scFv)
scFv: B1 scFv with S49A, V50G, P53H, A54P, N56D

The chains behind the UniProt entries cited, without tags or fusion partners. Residues count along the entry.
UniProt P29317, residues 25-534: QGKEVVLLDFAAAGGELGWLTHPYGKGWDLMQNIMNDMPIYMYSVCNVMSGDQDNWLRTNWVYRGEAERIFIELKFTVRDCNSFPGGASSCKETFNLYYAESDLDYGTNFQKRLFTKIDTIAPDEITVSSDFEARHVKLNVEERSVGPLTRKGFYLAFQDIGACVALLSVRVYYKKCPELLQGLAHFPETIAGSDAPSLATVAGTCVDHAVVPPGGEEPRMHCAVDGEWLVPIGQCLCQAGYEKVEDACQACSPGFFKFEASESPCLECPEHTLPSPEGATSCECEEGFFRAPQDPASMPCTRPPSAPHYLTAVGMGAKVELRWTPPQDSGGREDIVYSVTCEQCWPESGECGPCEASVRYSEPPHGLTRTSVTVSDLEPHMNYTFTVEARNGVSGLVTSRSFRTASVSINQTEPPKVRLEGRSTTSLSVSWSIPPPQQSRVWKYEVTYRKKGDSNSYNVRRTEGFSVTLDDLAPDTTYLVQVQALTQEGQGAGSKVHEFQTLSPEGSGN

Numbering of substitutions follows the chain as printed. No constants are given. Whether binding was seen depends on the method and setting. Some entries that bind do so weakly or less than the wild type.

One experiment addresses EphA2 with an His6 tag (UniProt P29317). The experiment in a line: yeast display FACS; 200 nM EphA2-His6, anti-His6 detection.
For the molecule B1, the binding entry is given as “binds”.
Same read-out and setting: under B2 stands “binds”; under B3, “binds”.
With B4, the binding result was “binds”.
With B5, the binding entry is “binds”.
In the case of B6, the binding result is on record as “binds”.
For the molecule B7, the binding entry was “binds”.
Still for that read-out and setting: under B8 stands “binds”.
Take B9: the binding result is recorded as “binds”.
Consider B10, for which the binding entry is on record as “binds”.
For B11, the binding result is listed as “binds”.
B12: the binding result was “binds”.
Consider B13, for which the binding result is on record as “binds”.
In the case of B14, the binding result is “binds”.
As for B15, the binding result is “binds”.
For B16, the binding entry is recorded as “binds”.
In the case of B17, the binding result is given as “binds”.
On to B18, for which the binding entry is given as “binds”.
Turning to B19, the binding entry is “binds”.
Still for that read-out and setting: the value for B20 was “binds”.
On to B21, for which the binding entry was “binds”.

For a further experiment, the target named is Staphylococcus aureus Protein A (Staphylococcus aureus) (UniProt P38507). Briefly: yeast display FACS; 10 ug/mL fluorescently labeled Protein A.
Take B1: the binding entry is “binds”.
Turning to B2, the binding entry was “binds”.
Still for that read-out and setting: under B3 stands “binds”.
As for B4, the binding result is given as “binds”.
Regarding B5, the binding entry is reported as “binds”.
As to B6, the binding result was “binds”.
Regarding B7, the binding result is given as “binds”.
For B8, the binding result is reported as “binds”.
B9: the binding entry is on record as “binds”.
As for B10, the binding result is given as “binds”.
For B11, the binding entry is given as “binds”.
For the molecule B22, the binding result was “binds”.
Turning to B12, the binding result is recorded as “binds”.
On the same count and under the same terms, the value for B13 was “binds”.
As to B14, the binding entry is “binds”.
On the same count and under the same terms, the value for B15 was “binds”.
Still for that read-out and setting: the value for B16 was “binds”.
Turning to B17, the binding entry was “binds”.
As for B18, the binding entry is listed as “binds”.
Still for that read-out and setting: the value for B19 was “binds”.
With B20, the binding result was “binds”.
B21: the binding entry is recorded as “binds”.

For the origin of these results see patent publication US20170267768A1.
